Laboratory results: article PMC7819943, “Rice protein-binding microarrays: a tool to detect cis-acting elements near promoter regions in rice”
Some of the results follow.

Target: T1, OsSMF1 (Oryza sativa, UniProt Q6ZLB0 1-436)
T1 sequence: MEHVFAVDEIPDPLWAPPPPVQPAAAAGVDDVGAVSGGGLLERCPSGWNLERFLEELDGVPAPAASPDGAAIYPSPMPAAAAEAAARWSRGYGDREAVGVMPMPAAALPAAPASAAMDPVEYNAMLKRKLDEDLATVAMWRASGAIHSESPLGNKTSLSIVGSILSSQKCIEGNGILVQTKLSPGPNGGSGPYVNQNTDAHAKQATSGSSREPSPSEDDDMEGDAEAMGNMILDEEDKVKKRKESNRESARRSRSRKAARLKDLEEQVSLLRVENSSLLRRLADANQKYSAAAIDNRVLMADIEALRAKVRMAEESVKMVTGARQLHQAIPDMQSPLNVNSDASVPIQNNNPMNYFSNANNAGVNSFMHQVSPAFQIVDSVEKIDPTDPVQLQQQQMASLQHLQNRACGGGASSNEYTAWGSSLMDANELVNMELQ
Experiment: protein-binding microarray (RPBM); PBS, 2% BSA, 51.3 ng/ul salmon testes DNA, 50 uM zinc acetate, 200 nM TF, 25 C, 1 h; high values mean tight binding
Conditions: protein: recombinant; tags: N-terminal polyhistidine and DsRed monomer fusion (pET32a); chain copies: 2; label: CyDye5-dUTP incorporated in the synthesized complementary strand; 3' TTTTT single-stranded linker to array surface; dsDNA, one strand shown
Outline: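 For the binding signal, per-feature fluorescence intensity was read in arbitrary units on an Axon 4000B scanner. Before scanning, a 2% BSA-blocked custom Agilent array made double-stranded with Cy5-dUTP was washed after 1 h at 25 °C with 200 nM protein and 50 µM zinc acetate. The proteins were Ni–NTA-purified transcription factors with N-terminal polyhistidine and DsRed fusions, expressed in E. coli BL21-CodonPlus.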

| Sequence | binding signal |
| --- | --- |
| AATACTCCAAATTAGCGTCCAAACATCCGATATGACATGGCGGAGTCACCTAGTGCAG | 4090 fluorescence intensity (a.u.) |
| GGAGAGTTCATTTGCGGGTGCACGTGCAGTGCAGTCTTTTCGGAGTCACCTAGTGCAG | 22800 fluorescence intensity (a.u.) |
| TTTCTCGGAATTTCTGGAAATTTTCTTGGAATTAGTAGAACGGAGTCACCTAGTGCAG | 65500 fluorescence intensity (a.u.) |
| CCTCCTCCTCCTCTACGTCGGCCCACGACTTCTTCTCCGGCGGAGTCACCTAGTGCAG | 3920 fluorescence intensity (a.u.) |
| CAAAATGCTGCCGACTCGGCCAACGCCACGCCCACACACCCGGAGTCACCTAGTGCAG | 3680 fluorescence intensity (a.u.) |
| TAACATCATGTCTAGTTTGTTACCCTATCAAGACTAAAACCGGAGTCACCTAGTGCAG | 42600 fluorescence intensity (a.u.) |
| GCCAATGCCATGTCCTCTGCGGCCTGCTTGCTGGTGAACTCGGAGTCACCTAGTGCAG | 46600 fluorescence intensity (a.u.) |
| ACGGCAAGTTGCACACATGACGTGTCATTTTCCAAATTGCCGGAGTCACCTAGTGCAG | 29800 fluorescence intensity (a.u.) |
| AATATAAATTCATATTAGTCAGTTATACTAGGGTTTGGTGCGGAGTCACCTAGTGCAG | 3240 fluorescence intensity (a.u.) |
| CGCCGCTGCCGCCAAACCGTCGGTGGAGAAGGCCTACCGGCGGAGTCACCTAGTGCAG | 59200 fluorescence intensity (a.u.) |
| GGATGCCATGACACCTAGGCATAGAATAGGCATAGAAAATCGGAGTCACCTAGTGCAG | 3750 fluorescence intensity (a.u.) |
| CATCATCTCCTCCTATATCAGTTGTCATCACCCGGCCTGTCGGAGTCACCTAGTGCAG | 4710 fluorescence intensity (a.u.) |
| ATCCTACTTTCCTATTGCTGTCATATGTGTCACGGCTGAACGGAGTCACCTAGTGCAG | 4920 fluorescence intensity (a.u.) |
| GATAAGGGAATTAATATATACAACGTGTCGAAATTTTGAGCGGAGTCACCTAGTGCAG | 3140 fluorescence intensity (a.u.) |
| CCAATATGAGCCCATTAGGCCCATCTGGCCCACAGCTCATCGGAGTCACCTAGTGCAG | 3500 fluorescence intensity (a.u.) |
| TCGTACGCTGGTCGGACATACCAGTCGTACGTATAGTATTCGGAGTCACCTAGTGCAG | 7790 fluorescence intensity (a.u.) |
| TCATGGCGACACTGCTTCGAACGTGGCGACGGTCAGTTCTCGGAGTCACCTAGTGCAG | 5080 fluorescence intensity (a.u.) |
| TCACATGCATAATTAGAATAATTGAAAGGCCACAGATGGCCGGAGTCACCTAGTGCAG | 3370 fluorescence intensity (a.u.) |
| TCGGCGGCGGCACACGCGTCGCCGCGCGGTTCGTCCGCTCCGGAGTCACCTAGTGCAG | 5120 fluorescence intensity (a.u.) |
| AGCCGTCCGTCCCGTGCTCTCACGTCATCAGGCATCCACCCGGAGTCACCTAGTGCAG | 10600 fluorescence intensity (a.u.) |
| GATACAATCGTATTGTCTGACGTCGCCATTGTGTAGATTACGGAGTCACCTAGTGCAG | 4840 fluorescence intensity (a.u.) |

Reprinted from the results shown for reference:

| Sequence | binding signal |
| --- | --- |
| TTTCTCGGAATTTCTGGAAATTTTCTTGGAATTAGTAGAACGGAGTCACCTAGTGCAG | 65500 fluorescence intensity (a.u.) |
| CCTCCTCCTCCTCTACGTCGGCCCACGACTTCTTCTCCGGCGGAGTCACCTAGTGCAG | 3920 fluorescence intensity (a.u.) |

(continued)

| Sequence | binding signal |
| --- | --- |
| TACAAAGCCTCACTACCTAGCTTCTTCTCTCTAGTCAAGACGGAGTCACCTAGTGCAG | 5540 fluorescence intensity (a.u.) |
| CTGCGGCAATCACTGACTCAGGTTGGTCCAGTTCATGGTTCGGAGTCACCTAGTGCAG | 5000 fluorescence intensity (a.u.) |
| TACAAAACAGAAGGTGACACTGGTGGTTCCTTGGCTCTGTCGGAGTCACCTAGTGCAG | 3560 fluorescence intensity (a.u.) |
| CATCCCATCCATCCATCTTTGCTGATTCACCCCACAAAATCGGAGTCACCTAGTGCAG | 6310 fluorescence intensity (a.u.) |
| CTAGTAGTGACACATCACCCAATTTGTGTGCATACCGCATCGGAGTCACCTAGTGCAG | 14100 fluorescence intensity (a.u.) |
| GCCAAACCCCTCCACGCGTCACATAAACCAACACATCTCCCGGAGTCACCTAGTGCAG | 8630 fluorescence intensity (a.u.) |
| TTCAGTCTTGTAGCAACGTCAACCGGTGCTGTCTTACAAGCGGAGTCACCTAGTGCAG | 4840 fluorescence intensity (a.u.) |
| ACATGCAAAGATGCCACATCATCATCCACTATCACTAATTCGGAGTCACCTAGTGCAG | 17600 fluorescence intensity (a.u.) |
| TTTCTACAAGTGGGTTGGACCACATGCATTGACTAATAATCGGAGTCACCTAGTGCAG | 3140 fluorescence intensity (a.u.) |
| AGGTTGAAGCTCATGTTAGAATTGTATTAAAATTCTTATGCGGAGTCACCTAGTGCAG | 5810 fluorescence intensity (a.u.) |
| GTGGAGACTAAATCCAACACATCTCGCTTGTCAGCGTCTTCGGAGTCACCTAGTGCAG | 3140 fluorescence intensity (a.u.) |
| CGGGCGGCATCGACACGTGTAGTTTTGCGAATGGTCAGCGCGGAGTCACCTAGTGCAG | 11900 fluorescence intensity (a.u.) |
| GCCTGGCACATGCATGATCCTTAACTTCCAAGTCAGATTGCGGAGTCACCTAGTGCAG | 4220 fluorescence intensity (a.u.) |
| AAGTTGGTTTAAAATCTCAATAAATTCATTTCCAAGTCTACGGAGTCACCTAGTGCAG | 5380 fluorescence intensity (a.u.) |
| CCTTCCCACCGCCGCATCCTCGATCTGCGTGCTGCCACCGCGGAGTCACCTAGTGCAG | 3500 fluorescence intensity (a.u.) |
| ATCTAGACCATTATTCTTTTAGTAATTTCAAATTTGTATTCGGAGTCACCTAGTGCAG | 4970 fluorescence intensity (a.u.) |
| TAGTAATCCAGGTATTTTAGTCATTTTGCAGCATCACTCACGGAGTCACCTAGTGCAG | 3400 fluorescence intensity (a.u.) |
| ATGAATCTGACAGGTGCTTCCCACGTGTAGATGAGGAAGACGGAGTCACCTAGTGCAG | 4590 fluorescence intensity (a.u.) |
| CATTCATGTTTGACAGCAGCAGGCTTTGCCTCCTCACTCCCGGAGTCACCTAGTGCAG | 3430 fluorescence intensity (a.u.) |
| AGCCCGGCCCATTATCATCACACCAACTCATCCACCCCGTCGGAGTCACCTAGTGCAG | 17800 fluorescence intensity (a.u.) |
| GTCGAGGAGGAGGCGGTGGTGGTGGTGGTGGCGCGGCCGCCGGAGTCACCTAGTGCAG | 4080 fluorescence intensity (a.u.) |
